Among the data in the supplement of paper PMC10849652 are log2 fold change values, retold here.

Sequences of proteins named here, by UniProt entry; tags and fusion partners are left off. A change or cut given only in a name is not applied to a line headed by its entry.
UniProt O43566: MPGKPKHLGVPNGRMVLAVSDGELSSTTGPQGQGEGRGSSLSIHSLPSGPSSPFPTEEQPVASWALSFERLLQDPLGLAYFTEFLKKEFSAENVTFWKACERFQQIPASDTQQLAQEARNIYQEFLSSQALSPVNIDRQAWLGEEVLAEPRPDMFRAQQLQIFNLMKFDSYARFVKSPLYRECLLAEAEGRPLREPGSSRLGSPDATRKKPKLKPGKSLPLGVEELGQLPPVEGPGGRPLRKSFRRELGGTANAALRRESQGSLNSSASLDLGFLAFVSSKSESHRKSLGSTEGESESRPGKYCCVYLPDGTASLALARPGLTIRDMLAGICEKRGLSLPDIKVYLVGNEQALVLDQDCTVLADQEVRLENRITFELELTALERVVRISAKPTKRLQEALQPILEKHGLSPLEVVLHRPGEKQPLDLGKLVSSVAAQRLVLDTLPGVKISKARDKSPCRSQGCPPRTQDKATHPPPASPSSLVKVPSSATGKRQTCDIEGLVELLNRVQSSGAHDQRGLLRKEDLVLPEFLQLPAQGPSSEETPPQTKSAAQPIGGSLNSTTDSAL
UniProt Q96GF1: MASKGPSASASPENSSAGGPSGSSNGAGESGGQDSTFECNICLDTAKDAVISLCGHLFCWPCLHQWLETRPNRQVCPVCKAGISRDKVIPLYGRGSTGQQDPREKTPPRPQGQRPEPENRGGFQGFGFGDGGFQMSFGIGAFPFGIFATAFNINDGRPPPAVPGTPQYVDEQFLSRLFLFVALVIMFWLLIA
UniProt Q8NDN9: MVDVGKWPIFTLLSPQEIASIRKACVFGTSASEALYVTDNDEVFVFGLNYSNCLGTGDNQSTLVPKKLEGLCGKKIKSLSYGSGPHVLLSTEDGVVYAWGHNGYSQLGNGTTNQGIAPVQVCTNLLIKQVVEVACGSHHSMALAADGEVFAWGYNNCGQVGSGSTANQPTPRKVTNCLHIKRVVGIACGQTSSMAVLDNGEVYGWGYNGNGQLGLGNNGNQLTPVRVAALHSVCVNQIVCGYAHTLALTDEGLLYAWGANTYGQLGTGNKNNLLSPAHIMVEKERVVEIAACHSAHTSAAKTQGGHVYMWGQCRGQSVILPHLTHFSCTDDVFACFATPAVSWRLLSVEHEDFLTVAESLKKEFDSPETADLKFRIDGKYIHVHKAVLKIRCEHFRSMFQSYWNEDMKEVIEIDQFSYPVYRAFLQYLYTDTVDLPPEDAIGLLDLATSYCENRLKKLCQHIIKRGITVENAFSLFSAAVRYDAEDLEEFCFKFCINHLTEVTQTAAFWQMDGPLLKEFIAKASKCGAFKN
UniProt Q9P260: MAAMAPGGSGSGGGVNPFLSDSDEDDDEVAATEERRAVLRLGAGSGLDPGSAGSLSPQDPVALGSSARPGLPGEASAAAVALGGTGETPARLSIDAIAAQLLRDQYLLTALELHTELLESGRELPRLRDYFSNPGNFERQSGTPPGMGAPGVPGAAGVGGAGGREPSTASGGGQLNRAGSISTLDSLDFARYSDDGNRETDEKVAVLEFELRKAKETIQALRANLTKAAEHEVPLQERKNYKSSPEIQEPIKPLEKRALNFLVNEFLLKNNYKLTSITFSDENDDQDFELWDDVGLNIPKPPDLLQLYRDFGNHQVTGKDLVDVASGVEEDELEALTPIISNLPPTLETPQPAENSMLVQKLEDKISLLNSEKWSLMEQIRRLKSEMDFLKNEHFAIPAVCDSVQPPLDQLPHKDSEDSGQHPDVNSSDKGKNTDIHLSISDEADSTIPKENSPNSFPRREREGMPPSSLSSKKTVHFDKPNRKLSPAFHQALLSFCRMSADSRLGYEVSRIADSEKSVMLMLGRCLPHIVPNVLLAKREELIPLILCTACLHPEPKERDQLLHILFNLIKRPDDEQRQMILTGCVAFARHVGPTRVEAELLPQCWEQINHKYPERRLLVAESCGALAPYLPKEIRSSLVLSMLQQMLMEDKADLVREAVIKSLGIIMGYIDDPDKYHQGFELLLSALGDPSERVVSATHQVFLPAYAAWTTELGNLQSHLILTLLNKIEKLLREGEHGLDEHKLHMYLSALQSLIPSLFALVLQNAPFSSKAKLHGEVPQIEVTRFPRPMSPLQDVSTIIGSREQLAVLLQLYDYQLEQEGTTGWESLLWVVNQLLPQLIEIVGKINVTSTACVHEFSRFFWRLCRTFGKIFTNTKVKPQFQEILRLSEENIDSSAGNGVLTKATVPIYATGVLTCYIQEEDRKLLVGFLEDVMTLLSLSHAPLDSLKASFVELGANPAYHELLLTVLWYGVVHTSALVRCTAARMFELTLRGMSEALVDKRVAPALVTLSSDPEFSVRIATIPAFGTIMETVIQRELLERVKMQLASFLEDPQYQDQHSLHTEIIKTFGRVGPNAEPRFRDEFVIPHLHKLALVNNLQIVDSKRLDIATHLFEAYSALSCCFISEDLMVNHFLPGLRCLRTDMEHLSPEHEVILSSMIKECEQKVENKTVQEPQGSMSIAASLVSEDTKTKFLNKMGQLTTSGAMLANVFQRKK
UniProt P48380: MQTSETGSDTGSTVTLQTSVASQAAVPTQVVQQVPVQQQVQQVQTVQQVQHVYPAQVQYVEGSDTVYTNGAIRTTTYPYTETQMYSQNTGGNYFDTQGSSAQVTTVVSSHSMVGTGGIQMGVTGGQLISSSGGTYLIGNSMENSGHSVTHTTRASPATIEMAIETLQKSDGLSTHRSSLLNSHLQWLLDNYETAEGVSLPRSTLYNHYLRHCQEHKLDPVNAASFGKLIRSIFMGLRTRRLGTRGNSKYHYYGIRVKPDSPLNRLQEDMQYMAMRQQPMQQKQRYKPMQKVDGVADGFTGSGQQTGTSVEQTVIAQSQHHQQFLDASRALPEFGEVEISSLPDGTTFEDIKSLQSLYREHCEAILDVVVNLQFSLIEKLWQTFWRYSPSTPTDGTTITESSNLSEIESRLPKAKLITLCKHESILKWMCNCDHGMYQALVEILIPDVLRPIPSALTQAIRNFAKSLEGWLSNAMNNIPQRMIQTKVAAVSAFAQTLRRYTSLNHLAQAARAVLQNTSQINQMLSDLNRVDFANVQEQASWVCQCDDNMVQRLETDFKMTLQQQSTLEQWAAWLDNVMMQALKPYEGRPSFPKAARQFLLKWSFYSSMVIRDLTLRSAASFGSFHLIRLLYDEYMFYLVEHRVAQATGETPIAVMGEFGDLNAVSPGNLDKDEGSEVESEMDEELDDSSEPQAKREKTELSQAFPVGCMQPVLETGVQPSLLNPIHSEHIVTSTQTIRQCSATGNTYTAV
UniProt Q8IYW5, whole entry, looked up: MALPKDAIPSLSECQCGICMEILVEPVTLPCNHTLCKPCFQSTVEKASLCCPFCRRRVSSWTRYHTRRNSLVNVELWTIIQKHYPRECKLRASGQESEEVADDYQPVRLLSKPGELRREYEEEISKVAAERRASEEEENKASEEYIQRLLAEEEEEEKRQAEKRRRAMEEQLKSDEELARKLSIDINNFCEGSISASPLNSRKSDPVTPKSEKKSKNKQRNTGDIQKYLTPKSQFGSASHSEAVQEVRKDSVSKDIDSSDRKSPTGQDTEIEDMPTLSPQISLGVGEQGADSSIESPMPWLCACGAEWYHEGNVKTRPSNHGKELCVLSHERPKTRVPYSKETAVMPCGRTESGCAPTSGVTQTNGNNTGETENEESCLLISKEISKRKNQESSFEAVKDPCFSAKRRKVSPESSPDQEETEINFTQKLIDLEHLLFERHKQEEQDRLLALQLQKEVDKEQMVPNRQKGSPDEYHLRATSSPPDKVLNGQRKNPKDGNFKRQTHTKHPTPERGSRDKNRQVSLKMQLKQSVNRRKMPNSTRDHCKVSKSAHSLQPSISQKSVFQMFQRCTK
UniProt Q9Y256: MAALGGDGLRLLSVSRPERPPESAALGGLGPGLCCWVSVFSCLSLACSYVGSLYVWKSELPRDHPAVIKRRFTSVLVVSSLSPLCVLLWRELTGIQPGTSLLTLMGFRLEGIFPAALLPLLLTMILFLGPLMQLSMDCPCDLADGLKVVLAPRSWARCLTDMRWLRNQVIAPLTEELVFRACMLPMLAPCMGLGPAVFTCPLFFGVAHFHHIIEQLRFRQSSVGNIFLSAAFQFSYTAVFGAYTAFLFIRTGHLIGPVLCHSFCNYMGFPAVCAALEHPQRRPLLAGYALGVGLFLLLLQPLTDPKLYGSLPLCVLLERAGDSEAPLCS
UniProt Q92546: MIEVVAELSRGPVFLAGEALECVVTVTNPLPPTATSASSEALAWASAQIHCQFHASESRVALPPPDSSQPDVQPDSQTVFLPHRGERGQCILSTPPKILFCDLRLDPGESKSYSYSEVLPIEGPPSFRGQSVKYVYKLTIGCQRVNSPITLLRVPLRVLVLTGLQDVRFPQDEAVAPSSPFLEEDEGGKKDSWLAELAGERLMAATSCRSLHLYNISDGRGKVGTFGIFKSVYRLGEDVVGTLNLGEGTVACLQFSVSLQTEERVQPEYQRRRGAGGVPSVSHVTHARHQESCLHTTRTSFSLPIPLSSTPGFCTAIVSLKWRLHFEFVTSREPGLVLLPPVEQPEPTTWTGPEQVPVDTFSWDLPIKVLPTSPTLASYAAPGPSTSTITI
UniProt Q8WVD3: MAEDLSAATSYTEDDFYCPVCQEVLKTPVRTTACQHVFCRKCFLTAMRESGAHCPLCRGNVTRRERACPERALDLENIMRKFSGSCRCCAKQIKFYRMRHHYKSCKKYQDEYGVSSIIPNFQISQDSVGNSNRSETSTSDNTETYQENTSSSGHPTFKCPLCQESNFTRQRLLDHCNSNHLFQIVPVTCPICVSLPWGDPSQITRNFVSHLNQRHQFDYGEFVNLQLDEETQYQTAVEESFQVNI
UniProt Q9H4X1: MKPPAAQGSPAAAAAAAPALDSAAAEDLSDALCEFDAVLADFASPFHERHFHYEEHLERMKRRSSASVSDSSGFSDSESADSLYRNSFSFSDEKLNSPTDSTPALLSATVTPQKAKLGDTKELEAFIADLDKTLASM

The other results are listed elsewhere or left out.

Compound in the test: CCN(CCCOc1ccc2c(Nc3cc(CC(=O)Nc4cccc(F)c4)[nH]n3)ncnc2c1)CCOP(=O)(O)O [barasertib]
The test can be described thus: log2 fold change, soluble protein after heating vs DMSO (PISA); higher = thermal stabilisation; K562 cells, 10 uM, 30 min; active = over 0.2 and 3.5 SD of the protein, either way, in both replicates (recomputed). Summed up:
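Thermal stability values are relative to control samples and come from duplicates. They are expressed as log2 fold changes. For measurement, K562 cells (2×10^6 cells/mL) received 10 μM compound for 30 min, and aliquots were heated for 3 min over 48°C-58°C, pooled, and extracted at 4°C in PBS with 0.5% NP-40. Soluble protein, the supernatant after 21,000xg for 90 min, was quantified by TMTpro 16plex LC-MS/MS with equalised channel sums.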
As to RGS14 (UniProt O43566), the log2 fold change was inactive: 0.054.
The same measure for RNF185 (UniProt Q96GF1): inactive: 0.055.
As for RCBTB1 (UniProt Q8NDN9), the log2 fold change was inactive: 0.049.
With RELCH isoform 2 (UniProt Q9P260), the log2 fold change is inactive: 0.225.
As for RFX3 (UniProt P48380), the log2 fold change was inactive: 0.239.
As to RNF168 (UniProt Q8IYW5), the log2 fold change was inactive: 0.002.
For RCE1 (UniProt Q9Y256), the log2 fold change is inactive: -0.068.
On to RGP1 (UniProt Q92546), for which the log2 fold change is inactive: 0.029.
The figure for RNF138 (UniProt Q8WVD3) is inactive: 0.037; for RGCC (UniProt Q9H4X1) it is inactive: -0.049.
